Measurements from patent US7723324B2 (priority 2003, dated 2010).
At least one structure is not confirmed: it was looked up by name or label, or the drawing left a doubt.

Target: central benzodiazepine receptors
Test: benzodiazepine receptor binding, 3H-flunitrazepam displacement (test of Speth et al.), central
Details: Table 1b

Row | Structure (SMILES) | IC50 [nM]
1 | COc1ccc(-c2nc3ccc(C)cn3c2CC(=O)c2cnn3c(C)cc(C)nc23)cc1 | 120
2 | COc1ccc(-c2nc3ccc(C)cn3c2CC(=O)c2cccn2C)cc1 | 420
